This experiment relates to BDF1 mice, P388 leukemia ip, median survival T/C. Kind of experiment: NCI In Vivo Anticancer Drug Screen. Data for tumor model P388 Leukemia (intraperitoneal) in B6D2F1 (BDF1) mice. Particulars: T/C endpoint: median survival time, higher T/C = longer survival. The method, boiled down: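 Survival ratio, drug arm over vehicle arm, in mice with a transplanted tumour.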
Setting [1] is: dose: 200.0 mg/kg/injection, schedule: Q01DX009 (ip), vehicle: saline with Tween-80.
Setting [2] is: dose: 0.93 mg/kg/injection, schedule: Q01DX009 (ip), vehicle: saline.
[3] abbreviates: dose: 5.6 mg/kg/injection, schedule: Q04DX003 (ip), vehicle: saline.
Setting [4] is: dose: 12.0 mg/kg/injection, schedule: Q04DX003 (ip), vehicle: saline.
[5] abbreviates: dose: 100.0 mg/kg/injection, schedule: Q01DX009 (ip), vehicle: saline with Tween-80.
Where [6] appears, read: dose: 400.0 mg/kg/injection, schedule: Q01DX009 (ip), vehicle: saline.

25 compounds from PubChem BioAssay AID328 (DTP/NCI, 2004) can be followed below.

Molecules are shown by their SMILES. The list is a part of this screen's results and no random one: it gathers tests that were run many times, whatever their T/C, doses with no T/C, and many T/C values between a quarter and a half above the control. Further doses and runs are listed elsewhere. T/C: endpoint of the treated group in % of that of the vehicle group. Some entries give survivors of the animals treated and no T/C: the source holds a T/C of zero for them, seemingly a mark for toxic or unscored doses. Some survivor counts are full or nearly so, which does not show that the dose was tolerated: the source hardly ever lists a survival T/C far under the control, and the zero likely stands for such cases as well. Counts of survivors are from the toxicity check (mostly the fifth day) where no day follows; animals may have died later. Schedules are NCI's codes, read here as Q, the interval in days (D) or hours (H), X, the number of doses. Some entries hold several experiments; the results are listed from low to high. Where survival is the endpoint, this PubChem deposit counts one and a half times the control or more as active, and values a quarter to a half above the control carry no call in these data; other NCI protocols may use other cut-offs. Some T/C values are followed by the survivors on the day toxicity was checked, most often the fifth; without a count, all were alive then.

On to `O=[N+]([O-])c1ccc(NS(=O)(=O)c2cc(Cl)ccc2Cl)c(C(F)(F)F)c1`, for which the survivor count under setting [1] is reported as 3 of 6.
`C[n+]1ccc(Nc2ccc(NC(=O)c3ccc(C(=O)Nc4ccc(Nc5cc[n+](C)c(N)n5)cc4)cc3)cc2)nc1N`: the survivor count (dose: 400.0 mg/kg/injection, schedule: Q04DX003 (ip), vehicle: saline) was 3 of 6.
Consider `O=C1C=CC(=O)N1`, for which the survivor count reads like this: (dose: 0.61 mg/kg/injection, schedule: Q01DX009 (ip), vehicle: saline) 5 of 6; under setting [2], 3 of 6; (dose: 1.39 mg/kg/injection, schedule: Q01DX009 (ip), vehicle: saline) 0 of 6; (dose: 3.7 mg/kg/injection, schedule: Q04DX003 (ip), vehicle: saline) 2 of 6; under setting [3], 1 of 6 and 2 of 6; (dose: 8.4 mg/kg/injection, schedule: Q04DX003 (ip), vehicle: saline) 0 of 6 and 1 of 6. Also, the survivor count under setting [4] is given as 1 of 6. Further, the T/C is 131 % of control under setting [2]; 126 % of control (dose: 1.87 mg/kg/injection, schedule: Q01DX009 (ip), vehicle: saline); 126 % of control [5 of 6 alive] (dose: 3.74 mg/kg/injection, schedule: Q01DX009 (ip), vehicle: saline); 140 % of control under setting [3].
As to `CC(=O)OCCCC/C(=C/c1cc2ccccc2c2ccccc12)[N+](=O)[O-]`, the survivor count (dose: 200.0 mg/kg/injection, schedule: Q01DX009 (ip), vehicle: Klucel (hydroxypropylcellulose) (HPC)) is reported as 2 of 6.
With `C#CC[N+](CCO)(CCO)CCCCCCCCCCCCCCCCCC`, the survivor count (dose: 25.0 mg/kg/injection, schedule: Q01DX009 (ip), vehicle: Klucel (hydroxypropylcellulose) (HPC)) is recorded as 5 of 6 and the survivor count (dose: 50.0 mg/kg/injection, schedule: Q01DX009 (ip), vehicle: Klucel (hydroxypropylcellulose) (HPC)) was 1 of 6.
Take `Cn1nnc2nnc(-c3ccccc3)n21`: the survivor count (dose: 400.0 mg/kg/injection, schedule: Q01DX009 (ip), vehicle: saline with Tween-80) is reported as 4 of 6.
Regarding `CCCCCCCC(=O)OCC(=O)[C@]1(O)Cc2c(O)c3c(c(O)c2[C@@H](OC2CC(N)C(O)C(C)O2)C1)C(=O)c1c(OC)cccc1C3=O` (stereo partly specified), the T/C by setting is: (dose: 0.5 mg/kg/injection, schedule: Q01DX009 (ip), vehicle: water) 125 % of control; (dose: 5.0 mg/kg/injection, schedule: Q04DX003 (ip), vehicle: water) 133 % of control [5 of 6 alive]; (dose: 20.0 mg/kg/injection, schedule: Q04DX003 (ip), vehicle: water) 126 % of control. Besides, the survivor count is 8 of 8 (dose: 4.0 mg/kg/injection, schedule: Q01DX009 (ip), vehicle: water); 5 of 8 and 6 of 8 (dose: 8.0 mg/kg/injection, schedule: Q01DX009 (ip), vehicle: water); 8 of 8 (dose: 13.33 mg/kg/injection, schedule: Q04DX003 (ip), vehicle: water); 6 of 8 (dose: 16.0 mg/kg/injection, schedule: Q04DX003 (ip), vehicle: water).
Regarding `C=CC(=O)NCNC(=O)CCBr`, the T/C (dose: 132.0 mg/kg/injection, schedule: Q04DX003 (ip), vehicle: saline with Tween-80) is 125 % of control.
Turning to `COc1ccc(N2CSC(=S)N(c3ccc(OC)cc3)C2)cc1`, the survivor count (dose: 200.0 mg/kg/injection, schedule: Q04DX003 (ip), vehicle: saline) is listed as 6 of 6.
Consider `ONc1nc(NO)c2[nH]cnc2n1`, for which the T/C (dose: 44.0 mg/kg/injection, schedule: Q01DX001 (ip), vehicle: water) was 136 % of control; the T/C (dose: 66.0 mg/kg/injection, schedule: Q01DX001 (ip), vehicle: water) was 136 % of control; the T/C (dose: 100.0 mg/kg/injection, schedule: Q01DX001 (ip), vehicle: water) is 136 % of control; the T/C (dose: 150.0 mg/kg/injection, schedule: Q01DX001 (ip), vehicle: water) is 131 % of control.
For the compound `CCCCCCCCOC(=O)c1ccc(OP(=O)(N(C)C)N(C)C)cc1`, under setting [5], the survivor count is listed as 4 of 6.
`N#CC1CC2(CCC1=O)c1ccccc1-c1ccccc12` (stereo unspecified): the survivor count is on record as 3 of 6 (dose: 100.0 mg/kg/injection, schedule: Q04DX002 (ip), vehicle: saline with Tween-80); 2 of 6 (dose: 200.0 mg/kg/injection, schedule: Q04DX002 (ip), vehicle: saline with Tween-80); 0 of 6 (dose: 400.0 mg/kg/injection, schedule: Q04DX002 (ip), vehicle: saline with Tween-80).
Turning to `O=C1NC(c2ccccc2)(c2ccccc2)C(=O)N1CCBr`, the survivor count is 6 of 6 (dose: 12.5 mg/kg/injection, schedule: Q04DX003 (ip), vehicle: saline); 6 of 6 (dose: 25.0 mg/kg/injection, schedule: Q04DX003 (ip), vehicle: saline); 6 of 6 (dose: 100.0 mg/kg/injection, schedule: Q04DX003 (ip), vehicle: saline).
`CCCCCCC(N)C(C)=O` (stereo unspecified): under “dose: 200.0 mg/kg/injection, schedule: Q01DX009 (ip), vehicle: saline”, the survivor count is listed as 0 of 6.
For `NNc1ncnc2c1ncn2C1OC(CO)C(O)C1O` (stereo unspecified), where the note is “dose: 30.0 mg/kg/injection, schedule: Q01DX010 (ip), vehicle: saline”, the T/C was 127 % of control. Further, the survivor count (dose: 120.0 mg/kg/injection, schedule: Q01DX010 (ip), vehicle: saline) is 6 of 6.
Take `O=C1C=CC(=O)N1CO`: the survivor count was 5 of 6 (dose: 5.0 mg/kg/injection, schedule: Q01DX009 (ip), vehicle: saline); 0 of 6 under setting [4]; 0 of 6 (dose: 19.0 mg/kg/injection, schedule: Q04DX003 (ip), vehicle: saline); 0 of 6 (dose: 28.0 mg/kg/injection, schedule: Q04DX003 (ip), vehicle: saline).
On to `NS(=O)(=O)c1ccc(Cl)cc1`, for which the survivor count is, setting by setting: (dose: 150.0 mg/kg/injection, schedule: Q01DX009 (ip), vehicle: saline) 0 of 6; (dose: 225.0 mg/kg/injection, schedule: Q01DX009 (ip), vehicle: saline) 0 of 6; (dose: 335.0 mg/kg/injection, schedule: Q01DX009 (ip), vehicle: saline) 0 of 6.
On to `NC(=O)CNCCS(=O)(=O)O`, for which the survivor count under setting [6] was 6 of 6.
On the same count and under the same terms, the result for `CS(=O)(=O)c1ncc(Br)cn1` reads 6 of 6.
As for `CCOC(=O)C1CC1c1ccccc1` (stereo unspecified), the T/C (dose: 50.0 mg/kg/injection, schedule: Q01DX009 (ip), vehicle: saline with Tween-80) is 130 % of control and the T/C under setting [1] is 125 % of control.
Turning to `BrCC1CCCO1` (stereo unspecified), the survivor count under setting [5] is listed as 0 of 6.
For `CC(Cc1ccc(O)c(O)c1)C(C)Cc1ccc(O)c(O)c1` (stereo unspecified), under “dose: 400.0 mg/kg/injection, schedule: Q01DX010 (ip), vehicle: saline”, the survivor count is on record as 0 of 6.
As for `CC(C)=CC(=O)OCC1CC[N+](C)([O-])C1` (stereo unspecified), the survivor count (dose: 50.0 mg/kg/injection, schedule: Q01DX009 (ip), vehicle: saline) was 4 of 4; the survivor count (dose: 400.0 mg/kg/injection, schedule: Q01DX001 (ip), vehicle: saline) was 6 of 6; the survivor count (dose: 1600.0 mg/kg/injection, schedule: Q01DX001 (ip), vehicle: saline) is recorded as 0 of 6.
In the case of `Cc1cc(=O)[nH]c2c1CCCC2`, the T/C is, setting by setting: (dose: 37.5 mg/kg/injection, schedule: Q01DX009 (ip), vehicle: saline with Tween-80) 127 % of control; (dose: 150.0 mg/kg/injection, schedule: Q01DX009 (ip), vehicle: saline with Tween-80) 127 % of control.
With `O=c1oc2ccccc2c2c1C(c1ccc3c(c1)OCO3)C=C(c1ccc3c(c1)OCO3)O2` (stereo unspecified), the survivor count (dose: 100.0 mg/kg/injection, schedule: Q01DX009 (ip), vehicle: water) is listed as 4 of 6. In addition, the T/C runs as follows: (dose: 400.0 mg/kg/injection, schedule: Q01DX009 (ip), vehicle: water) 132 % of control [5 of 6 alive]; (dose: 600.0 mg/kg/injection, schedule: Q04DX003 (ip), vehicle: water) 127 % of control.
